# In the supplement of paper PMC8728848:
# The other results are listed elsewhere or left out.
# B1: Intelectin-1a (Mus musculus) (protein)
# chain: AEWSHPQFEKAEENLDTNRWGNSFFSSLPRSCKEIKQEHTKAQDGLYFLRTKNGVIYQTFCDMTTAGGGWTLVASVHENNMRGKCTVGDRWSSQQGNRADYPEGDGNWANYNTFGSAEAATSDDYKNPGYFDIQAENLGIWHVPNKSPLHNWRKSSLLRYRTFTGFLQHLGHNLFGLYKKYPVKYGEGKCWTDNGPALPVVYDFGDARKTASYYSPSGQREFTAGYVQFRVFNNERAASALCAGVRVTGCNTEHHCIGGGGFFPEGNPVQCGDFASFDWDGYGTHNGYSSSRKITEAAVLLFYR
# What was measured:
# Test in all cases: glycan array binding signal (z-score within array); higher = stronger binding
# Settings in all cases: glycan notation: IUPAC condensed, linker removed
# Fuc(a1-2)Gal6S(b1-4)Glc = biological target: Fuc(a1-2)Gal6S(b1-4)Glc
# Outline: (§1)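 From the Consortium for Functional Glycomics database, 3228 arrays were curated, keeping only those whose protein sequence was available. Binding is given as a within-array Z-score averaged across arrays sharing a protein sequence and across linkers. Negative Z-scores can be read as non-binding.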
# [1] = biological target: Fuc(a1-2)Gal6S(b1-4)Glc6S
# Outline: as §1
# [2] = biological target: Fuc(a1-2)Gal6S(b1-4)GlcNAc
# Outline: as §1
# Fuc(a1-2)[Gal(a1-3)]Gal = biological target: Fuc(a1-2)[Gal(a1-3)]Gal
# Outline: as §1
# [3] = biological target: Fuc(a1-2)[Gal(a1-3)]Gal(b1-3)GalNAc
# Outline: as §1
# [4] = biological target: Fuc(a1-2)[Gal(a1-3)]Gal(b1-3)GlcNAc
# Outline: as §1
# [5] = biological target: Fuc(a1-2)[Gal(a1-3)]Gal(b1-3)GlcNAc(b1-2)Man(a1-3)[Fuc(a1-2)[Gal(a1-3)]Gal(b1-3)GlcNAc(b1-2)Man(a1-6)]Man(b1-4)GlcNAc(b1-4)GlcNAc
# Outline: as §1
# [6] = biological target: Fuc(a1-2)[Gal(a1-3)]Gal(b1-3)GlcNAc(b1-2)Man(a1-3)[Fuc(a1-2)[Gal(a1-3)]Gal(b1-3)GlcNAc(b1-2)Man(a1-6)]Man(b1-4)GlcNAc(b1-4)[Fuc(a1-6)]GlcNAc
# Outline: as §1
# [7] = biological target: Fuc(a1-2)[Gal(a1-3)]Gal(b1-3)GlcNAc(b1-3)GalNAc
# Outline: as §1
# [8] = biological target: Fuc(a1-2)[Gal(a1-3)]Gal(b1-4)Glc
# Outline: as §1
# [9] = biological target: Fuc(a1-2)[Gal(a1-3)]Gal(b1-4)GlcNAc
# Outline: as §1
# [10] = biological target: Fuc(a1-2)[Gal(a1-3)]Gal(b1-4)GlcNAc(b1-2)Man(a1-3)[Fuc(a1-2)[Gal(a1-3)]Gal(b1-4)GlcNAc(b1-2)Man(a1-6)]Man(b1-4)GlcNAc(b1-4)GlcNAc
# Outline: as §1
# [11] = biological target: Fuc(a1-2)[Gal(a1-3)]Gal(b1-4)GlcNAc(b1-2)Man(a1-3)[Fuc(a1-2)[Gal(a1-3)]Gal(b1-4)GlcNAc(b1-2)Man(a1-6)]Man(b1-4)GlcNAc(b1-4)[Fuc(a1-6)]GlcNAc
# Outline: as §1
# [12] = biological target: Fuc(a1-2)[Gal(a1-3)]Gal(b1-4)GlcNAc(b1-3)GalNAc
# Outline: as §1
# [13] = biological target: Fuc(a1-2)[Gal(a1-3)]Gal(b1-4)GlcNAc(b1-6)GalNAc
# Outline: as §1
# [14] = biological target: Fuc(a1-2)[Gal(a1-3)]Gal(b1-4)[Fuc(a1-3)]Glc
# Outline: as §1
# [15] = biological target: Fuc(a1-2)[Gal(a1-3)]Gal(b1-4)[Fuc(a1-3)]GlcNAc
# Outline: as §1
# [16] = biological target: Fuc(a1-2)[Gal(a1-3)]Gal(b1-4)[Fuc(a1-3)]GlcNAc(b1-3)GalNAc
# Outline: as §1
# [17] = biological target: Fuc(a1-2)[Gal(a1-4)]Gal(b1-4)GlcNAc
# Outline: as §1
# [18] = biological target: Fuc(a1-2)[GalNAc(a1-3)]Gal
# Outline: as §1
# [19] = biological target: Fuc(a1-2)[GalNAc(a1-3)]Gal(b1-3)GalNAc(a1-3)[Fuc(a1-2)]Gal(b1-4)GlcNAc
# Outline: as §1
# [20] = biological target: Fuc(a1-2)[GalNAc(a1-3)]Gal(b1-3)GlcNAc
# Outline: as §1
# [21] = biological target: Fuc(a1-2)[GalNAc(a1-3)]Gal(b1-3)GlcNAc(b1-2)Man(a1-3)[Fuc(a1-2)[GalNAc(a1-3)]Gal(b1-3)GlcNAc(b1-2)Man(a1-6)]Man(b1-4)GlcNAc(b1-4)GlcNAc
# Outline: as §1
# [22] = biological target: Fuc(a1-2)[GalNAc(a1-3)]Gal(b1-3)GlcNAc(b1-2)Man(a1-3)[Fuc(a1-2)[GalNAc(a1-3)]Gal(b1-3)GlcNAc(b1-2)Man(a1-6)]Man(b1-4)GlcNAc(b1-4)[Fuc(a1-6)]GlcNAc
# Outline: as §1
# [23] = biological target: Fuc(a1-2)[GalNAc(a1-3)]Gal(b1-3)GlcNAc(b1-3)GalNAc
# Outline: as §1
# [24] = biological target: Fuc(a1-2)[GalNAc(a1-3)]Gal(b1-3)GlcNAc(b1-6)GalNAc
# Outline: as §1
# [25] = biological target: Fuc(a1-2)[GalNAc(a1-3)]Gal(b1-4)Glc
# Outline: as §1
# [26] = biological target: Fuc(a1-2)[GalNAc(a1-3)]Gal(b1-4)GlcNAc
# Outline: as §1
# [27] = biological target: Fuc(a1-2)[GalNAc(a1-3)]Gal(b1-4)GlcNAc(b1-2)Man(a1-3)[Fuc(a1-2)[GalNAc(a1-3)]Gal(b1-4)GlcNAc(b1-2)Man(a1-6)]Man(b1-4)GlcNAc(b1-4)GlcNAc
# Outline: as §1
# [28] = biological target: Fuc(a1-2)[GalNAc(a1-3)]Gal(b1-4)GlcNAc(b1-2)Man(a1-3)[Fuc(a1-2)[GalNAc(a1-3)]Gal(b1-4)GlcNAc(b1-2)Man(a1-6)]Man(b1-4)GlcNAc(b1-4)[Fuc(a1-6)]GlcNAc
# Outline: as §1
# [29] = biological target: Fuc(a1-2)[GalNAc(a1-3)]Gal(b1-4)GlcNAc(b1-3)Gal(b1-4)GlcNAc
# Outline: as §1
# [30] = biological target: Fuc(a1-2)[GalNAc(a1-3)]Gal(b1-4)GlcNAc(b1-3)Gal(b1-4)GlcNAc(b1-3)Gal(b1-4)GlcNAc
# Outline: as §1
# [31] = biological target: Fuc(a1-2)[GalNAc(a1-3)]Gal(b1-4)GlcNAc(b1-3)GalNAc
# Outline: as §1
# [32] = biological target: Fuc(a1-2)[GalNAc(a1-3)]Gal(b1-4)[Fuc(a1-3)]GlcNAc
# Outline: as §1
# [33] = biological target: Fuc(a1-2)[GalNAc(a1-3)]Gal(b1-4)[Fuc(a1-3)]GlcNAc(b1-3)GalNAc
# Outline: as §1
# [34] = biological target: Fuc(a1-2)[GalNAc(a1-4)]Gal(b1-4)GlcNAc
# Outline: as §1
# [35] = biological target: Fuc(a1-2)[GalNAc(b1-3)]Gal
# Outline: as §1
# Fuc(a1-3)GlcNAc = biological target: Fuc(a1-3)GlcNAc
# Outline: as §1
# [36] = biological target: Fuc(a1-3)[Gal(b1-4)]Glc6S
# Outline: as §1
# [37] = biological target: Fuc(a1-3)[Gal(b1-4)]GlcNAc
# Outline: as §1
# [38] = biological target: Fuc(a1-3)[Gal(b1-4)]GlcNAc(b1-2)Man
# Outline: as §1
# [39] = biological target: Fuc(a1-3)[Gal(b1-4)]GlcNAc(b1-2)Man(a1-3)[Fuc(a1-3)[Gal(b1-4)]GlcNAc(b1-2)Man(a1-6)]Man(b1-4)GlcNAc(b1-4)GlcNAc
# Outline: as §1
# [40] = biological target: Fuc(a1-3)[Gal(b1-4)]GlcNAc(b1-2)Man(a1-3)[Fuc(a1-3)[Gal(b1-4)]GlcNAc(b1-2)Man(a1-6)]Man(b1-4)GlcNAc(b1-4)[Fuc(a1-6)]GlcNAc
# Outline: as §1
# [41] = biological target: Fuc(a1-3)[Gal(b1-4)]GlcNAc(b1-3)Gal(b1-3)[Fuc(a1-4)]GlcNAc
# Outline: as §1
# [42] = biological target: Fuc(a1-3)[Gal(b1-4)]GlcNAc(b1-3)GalNAc
# Outline: as §1
binder,measurement,setting,value
B1,glycan array binding signal (z-score),Fuc(a1-2)Gal6S(b1-4)Glc,1.88
same,glycan array binding signal (z-score),[1],0.863
same,glycan array binding signal (z-score),[2],0.39
same,glycan array binding signal (z-score),Fuc(a1-2)[Gal(a1-3)]Gal,0.796
same,glycan array binding signal (z-score),[3],-0.257
same,glycan array binding signal (z-score),[4],2.13
same,glycan array binding signal (z-score),[5],0.954
same,glycan array binding signal (z-score),[6],3.73
same,glycan array binding signal (z-score),[7],-0.672
same,glycan array binding signal (z-score),[8],0.504
same,glycan array binding signal (z-score),[9],-0.525
same,glycan array binding signal (z-score),[10],-0.423
same,glycan array binding signal (z-score),[11],0.287
same,glycan array binding signal (z-score),[12],-0.333
same,glycan array binding signal (z-score),[13],0.399
same,glycan array binding signal (z-score),[14],-0.817
same,glycan array binding signal (z-score),[15],0.157
same,glycan array binding signal (z-score),[16],-1.73
same,glycan array binding signal (z-score),[17],0.09
same,glycan array binding signal (z-score),[18],0.968
same,glycan array binding signal (z-score),[19],0.218
same,glycan array binding signal (z-score),[20],0.794
same,glycan array binding signal (z-score),[21],0.792
same,glycan array binding signal (z-score),[22],-0.14
same,glycan array binding signal (z-score),[23],0.13
same,glycan array binding signal (z-score),[24],1.27
same,glycan array binding signal (z-score),[25],-1.38
same,glycan array binding signal (z-score),[26],-0.103
same,glycan array binding signal (z-score),[27],-0.564
same,glycan array binding signal (z-score),[28],-0.075
same,glycan array binding signal (z-score),[29],-0.494
same,glycan array binding signal (z-score),[30],-0.802
same,glycan array binding signal (z-score),[31],0.267
same,glycan array binding signal (z-score),[32],-1.53
same,glycan array binding signal (z-score),[33],0.041
same,glycan array binding signal (z-score),[34],-1.02
same,glycan array binding signal (z-score),[35],-0.26
same,glycan array binding signal (z-score),Fuc(a1-3)GlcNAc,-0.632
same,glycan array binding signal (z-score),[36],0.465
same,glycan array binding signal (z-score),[37],-0.321
same,glycan array binding signal (z-score),[38],-1.26
same,glycan array binding signal (z-score),[39],1.33
same,glycan array binding signal (z-score),[40],0.88
same,glycan array binding signal (z-score),[41],1.24
same,glycan array binding signal (z-score),[42],-0.322
